Data source: PubChem BioAssay AID652272 (Drosophila RNAi Screening Center, 2013)
The deposit covers about 21,000 reagents; below is a random part of those with a known target gene and a result. Over the whole deposit, 503 (2.4%) got an active call. 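Raw plate light values, not normalised; calls rest on replicate z-scores that were not deposited; hits include reporter decreases as well as increases.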 Not stated in the record: the amount of reagent, the time to read-out.

- Purpose: 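Finding fly genes that regulate Hedgehog signal transduction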 (primary screen)
- Cells: Drosophila clone 8 (Cl8) cells
- Reagents: long dsRNA against Drosophila genes
- Detection: 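Firefly light from a Hedgehog-responsive ptc promoter reporter and Renilla reference light, both read on a plate reader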
- Reading the numbers: firefly Hh reporter signal: higher = more ptc reporter light; Renilla reference signal: higher = more Renilla control light
- Call rule: 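Called a hit if the two-replicate mean z-score lies below -2 or above +3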
- Calls: active = hit: reporter lowered or raised; inactive = not a hit

What did the screen give for Etl1 [DRSC02911]?
firefly Hh reporter signal, replicate 1: 84256; firefly Hh reporter signal, replicate 2: 56968; Renilla reference signal, replicate 1: 3267; Renilla reference signal, replicate 2: 2787; call: inactive

For CNMaR [DRSC08992], how do the results read?
firefly Hh reporter signal, replicate 1: 75500; firefly Hh reporter signal, replicate 2: 1.55e5; Renilla reference signal, replicate 1: 2068; Renilla reference signal, replicate 2: 6669; call: inactive

Which result is listed for CNMaR [DRSC10224]?
firefly Hh reporter signal, replicate 1: 30311; firefly Hh reporter signal, replicate 2: 44416; firefly Hh reporter signal, replicate 3: 52472; Renilla reference signal, replicate 1: 4579; Renilla reference signal, replicate 2: 3673; call: inactive

With crb [DRSC16927], what was measured?
firefly Hh reporter signal, replicate 1: 68714; firefly Hh reporter signal, replicate 2: 35175; Renilla reference signal, replicate 1: 3680; Renilla reference signal, replicate 2: 1879; call: inactive

Which result is listed for CG11828 [DRSC14394]?
firefly Hh reporter signal, replicate 1: 1.36e5; firefly Hh reporter signal, replicate 2: 2.01e5; Renilla reference signal, replicate 1: 5051; Renilla reference signal, replicate 2: 6737; call: inactive

What did the screen give for plx [DRSC12260]?
firefly Hh reporter signal, replicate 1: 86599; firefly Hh reporter signal, replicate 2: 1.08e5; Renilla reference signal, replicate 1: 3449; Renilla reference signal, replicate 2: 2793; call: inactive

What did the screen give for plx [DRSC12385]?
firefly Hh reporter signal, replicate 1: 1.39e5; firefly Hh reporter signal, replicate 2: 4.80e5; firefly Hh reporter signal, replicate 3: 1.30e5; Renilla reference signal, replicate 1: 4940; Renilla reference signal, replicate 2: 2868; call: inactive

With CG11454 [DRSC00310], what was measured?
firefly Hh reporter signal, replicate 1: 1.13e5; firefly Hh reporter signal, replicate 2: 48966; Renilla reference signal, replicate 1: 4899; Renilla reference signal, replicate 2: 2377; call: inactive

What is on record for ase [DRSC18739]?
firefly Hh reporter signal, replicate 1: 72362; firefly Hh reporter signal, replicate 2: 1.72e5; Renilla reference signal, replicate 1: 1765; Renilla reference signal, replicate 2: 6307; call: inactive

For Act79B [DRSC11604], what was measured?
firefly Hh reporter signal, replicate 1: 62928; firefly Hh reporter signal, replicate 2: 56577; Renilla reference signal, replicate 1: 2614; Renilla reference signal, replicate 2: 1514; call: inactive

Which result is listed for Gapvd1 [DRSC19752]?
firefly Hh reporter signal, replicate 1: 50103; firefly Hh reporter signal, replicate 2: 1.70e5; Renilla reference signal, replicate 1: 2045; Renilla reference signal, replicate 2: 7458; call: inactive

What is on record for Tsp26A [DRSC03135]?
firefly Hh reporter signal, replicate 1: 1.47e5; firefly Hh reporter signal, replicate 2: 68144; Renilla reference signal, replicate 1: 4048; Renilla reference signal, replicate 2: 5955; call: inactive

What is on record for CG5731 [DRSC02883]?
firefly Hh reporter signal, replicate 1: 94994; firefly Hh reporter signal, replicate 2: 80023; Renilla reference signal, replicate 1: 2673; Renilla reference signal, replicate 2: 6653; call: inactive

What did the screen give for CG4956 [DRSC15683]?
firefly Hh reporter signal, replicate 1: 5.44e5; firefly Hh reporter signal, replicate 2: 1.03e5; Renilla reference signal, replicate 1: 29216; Renilla reference signal, replicate 2: 2916; call: inactive

What is on record for CG5969 [DRSC11789]?
firefly Hh reporter signal, replicate 1: 99954; firefly Hh reporter signal, replicate 2: 66240; Renilla reference signal, replicate 1: 5745; Renilla reference signal, replicate 2: 3921; call: active

Which result is listed for CG10265 [DRSC05986]?
firefly Hh reporter signal, replicate 1: 1.58e5; firefly Hh reporter signal, replicate 2: 65274; Renilla reference signal, replicate 1: 5753; Renilla reference signal, replicate 2: 848; call: inactive

Active calls, among the entries above:
CG5969 [DRSC11789] — firefly Hh reporter signal, replicate 1 = 99954; firefly Hh reporter signal, replicate 2 = 66240; Renilla reference signal, replicate 1 = 5745; Renilla reference signal, replicate 2 = 3921; call = active

Next records follow.
What did the screen give for asrij [DRSC04175]?
firefly Hh reporter signal, replicate 1: 92490; firefly Hh reporter signal, replicate 2: 72787; Renilla reference signal, replicate 1: 2443; Renilla reference signal, replicate 2: 5732; call: inactive

With hep [DRSC19839], what was measured?
firefly Hh reporter signal, replicate 1: 78469; firefly Hh reporter signal, replicate 2: 1.95e5; Renilla reference signal, replicate 1: 2147; Renilla reference signal, replicate 2: 8118; call: inactive

For hep [DRSC20337], what was measured?
firefly Hh reporter signal, replicate 1: 64488; firefly Hh reporter signal, replicate 2: 1.47e5; Renilla reference signal, replicate 1: 2058; Renilla reference signal, replicate 2: 6563; call: inactive

With Synd [DRSC15116], how do the results read?
firefly Hh reporter signal, replicate 1: 6.20e5; firefly Hh reporter signal, replicate 2: 1.21e5; Renilla reference signal, replicate 1: 29435; Renilla reference signal, replicate 2: 4152; call: inactive

With CG17570 [DRSC01770], what does the deposit list?
firefly Hh reporter signal, replicate 1: 1.31e5; firefly Hh reporter signal, replicate 2: 2.98e5; Renilla reference signal, replicate 1: 3834; Renilla reference signal, replicate 2: 13094; call: inactive

With CG17570 [DRSC03754], what does the deposit list?
firefly Hh reporter signal, replicate 1: 92704; firefly Hh reporter signal, replicate 2: 41884; Renilla reference signal, replicate 1: 2516; Renilla reference signal, replicate 2: 3891; call: inactive

For ItgaPS4 [DRSC06630], what was measured?
firefly Hh reporter signal, replicate 1: 52540; firefly Hh reporter signal, replicate 2: 53553; Renilla reference signal, replicate 1: 1442; Renilla reference signal, replicate 2: 4099; call: inactive

For Vrp1 [DRSC04148], what was measured?
firefly Hh reporter signal, replicate 1: 76336; firefly Hh reporter signal, replicate 2: 55803; Renilla reference signal, replicate 1: 2698; Renilla reference signal, replicate 2: 2209; call: inactive

With CG14743 [DRSC06479], what was measured?
firefly Hh reporter signal, replicate 1: 81056; firefly Hh reporter signal, replicate 2: 33444; Renilla reference signal, replicate 1: 1773; Renilla reference signal, replicate 2: 2844; call: inactive

For CG43894 [DRSC09225], how do the results read?
firefly Hh reporter signal, replicate 1: 3.16e5; Renilla reference signal, replicate 1: 6298; call: inactive

Which result is listed for CG43894 [DRSC10123]?
firefly Hh reporter signal, replicate 1: 29078; firefly Hh reporter signal, replicate 2: 28713; firefly Hh reporter signal, replicate 3: 37568; Renilla reference signal, replicate 1: 2994; Renilla reference signal, replicate 2: 2649; call: inactive
